From the supplement of paper PMC12819154, “High-throughput peptide-centric local stability assay extends protein–ligand identification to membrane proteins, tissues and bacteria” (Nature Structural & Molecular Biology, 2025)
This is one part of the list. Most values lie at the level of the controls, where differences are scatter.

Protein sequences, listed by entry. Tags and fused reporters are not part of them. Lines headed by an entry give the natural chain unless they say otherwise; changes in a name come on top.
UniProt Q8R2M0: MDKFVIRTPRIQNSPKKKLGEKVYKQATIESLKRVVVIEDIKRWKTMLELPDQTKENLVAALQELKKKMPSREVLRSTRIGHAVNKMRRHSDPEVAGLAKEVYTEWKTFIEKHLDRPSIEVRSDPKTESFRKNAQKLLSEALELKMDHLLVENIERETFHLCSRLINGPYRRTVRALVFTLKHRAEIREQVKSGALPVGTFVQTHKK
UniProt Q8R183: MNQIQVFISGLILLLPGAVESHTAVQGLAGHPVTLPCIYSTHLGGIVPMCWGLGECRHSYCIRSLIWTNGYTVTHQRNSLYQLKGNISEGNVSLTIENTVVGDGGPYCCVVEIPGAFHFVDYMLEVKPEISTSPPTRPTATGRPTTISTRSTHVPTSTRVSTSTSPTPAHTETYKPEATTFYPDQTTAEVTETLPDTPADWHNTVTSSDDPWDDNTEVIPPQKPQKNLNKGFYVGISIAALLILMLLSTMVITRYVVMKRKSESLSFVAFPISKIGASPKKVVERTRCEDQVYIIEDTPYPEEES
UniProt Q8K394: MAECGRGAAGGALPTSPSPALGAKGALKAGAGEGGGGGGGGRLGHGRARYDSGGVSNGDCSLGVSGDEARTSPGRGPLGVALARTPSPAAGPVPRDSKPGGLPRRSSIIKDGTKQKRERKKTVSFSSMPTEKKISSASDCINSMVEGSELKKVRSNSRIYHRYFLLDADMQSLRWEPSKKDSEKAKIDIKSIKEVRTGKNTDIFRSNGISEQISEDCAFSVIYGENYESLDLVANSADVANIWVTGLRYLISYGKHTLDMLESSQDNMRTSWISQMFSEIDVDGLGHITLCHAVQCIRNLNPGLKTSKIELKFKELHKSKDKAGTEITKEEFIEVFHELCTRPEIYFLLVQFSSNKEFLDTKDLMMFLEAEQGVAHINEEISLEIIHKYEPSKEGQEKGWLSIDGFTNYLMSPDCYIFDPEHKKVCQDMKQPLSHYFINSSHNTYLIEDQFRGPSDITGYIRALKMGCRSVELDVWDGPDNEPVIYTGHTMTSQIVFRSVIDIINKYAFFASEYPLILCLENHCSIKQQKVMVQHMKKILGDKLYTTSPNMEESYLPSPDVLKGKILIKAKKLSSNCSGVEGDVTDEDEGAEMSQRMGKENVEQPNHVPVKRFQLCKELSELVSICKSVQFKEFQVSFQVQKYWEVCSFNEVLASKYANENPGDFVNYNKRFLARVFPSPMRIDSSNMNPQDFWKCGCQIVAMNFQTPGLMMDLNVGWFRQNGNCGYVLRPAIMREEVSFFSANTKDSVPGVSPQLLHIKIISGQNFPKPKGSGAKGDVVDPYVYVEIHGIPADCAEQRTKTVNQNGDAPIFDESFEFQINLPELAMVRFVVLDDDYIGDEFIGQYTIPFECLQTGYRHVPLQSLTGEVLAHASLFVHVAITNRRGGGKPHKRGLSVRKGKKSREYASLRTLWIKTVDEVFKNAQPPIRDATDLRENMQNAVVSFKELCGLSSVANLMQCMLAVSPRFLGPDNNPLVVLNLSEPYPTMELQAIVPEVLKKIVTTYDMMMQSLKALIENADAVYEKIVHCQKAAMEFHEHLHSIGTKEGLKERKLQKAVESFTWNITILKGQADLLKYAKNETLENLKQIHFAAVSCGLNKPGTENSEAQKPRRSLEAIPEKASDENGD
UniProt Q8K2Q5: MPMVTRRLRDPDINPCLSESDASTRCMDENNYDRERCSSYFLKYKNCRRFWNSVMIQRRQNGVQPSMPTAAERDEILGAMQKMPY
UniProt Q8QZZ8: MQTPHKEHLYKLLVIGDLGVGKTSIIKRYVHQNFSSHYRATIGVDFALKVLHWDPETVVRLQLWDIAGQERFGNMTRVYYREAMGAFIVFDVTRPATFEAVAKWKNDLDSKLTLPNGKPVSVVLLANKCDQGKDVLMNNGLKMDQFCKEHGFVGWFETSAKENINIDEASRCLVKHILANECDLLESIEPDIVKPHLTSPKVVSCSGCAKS
UniProt Q8R1I1: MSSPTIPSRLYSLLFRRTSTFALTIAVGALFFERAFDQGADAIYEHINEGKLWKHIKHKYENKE
UniProt Q8K354: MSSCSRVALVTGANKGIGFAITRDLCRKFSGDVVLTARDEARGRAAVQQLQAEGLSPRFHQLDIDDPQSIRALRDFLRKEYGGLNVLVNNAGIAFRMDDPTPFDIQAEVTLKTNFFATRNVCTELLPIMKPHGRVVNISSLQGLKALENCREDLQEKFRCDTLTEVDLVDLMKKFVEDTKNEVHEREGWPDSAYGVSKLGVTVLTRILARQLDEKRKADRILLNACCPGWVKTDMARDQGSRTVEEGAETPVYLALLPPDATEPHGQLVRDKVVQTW
UniProt Q8R1S4: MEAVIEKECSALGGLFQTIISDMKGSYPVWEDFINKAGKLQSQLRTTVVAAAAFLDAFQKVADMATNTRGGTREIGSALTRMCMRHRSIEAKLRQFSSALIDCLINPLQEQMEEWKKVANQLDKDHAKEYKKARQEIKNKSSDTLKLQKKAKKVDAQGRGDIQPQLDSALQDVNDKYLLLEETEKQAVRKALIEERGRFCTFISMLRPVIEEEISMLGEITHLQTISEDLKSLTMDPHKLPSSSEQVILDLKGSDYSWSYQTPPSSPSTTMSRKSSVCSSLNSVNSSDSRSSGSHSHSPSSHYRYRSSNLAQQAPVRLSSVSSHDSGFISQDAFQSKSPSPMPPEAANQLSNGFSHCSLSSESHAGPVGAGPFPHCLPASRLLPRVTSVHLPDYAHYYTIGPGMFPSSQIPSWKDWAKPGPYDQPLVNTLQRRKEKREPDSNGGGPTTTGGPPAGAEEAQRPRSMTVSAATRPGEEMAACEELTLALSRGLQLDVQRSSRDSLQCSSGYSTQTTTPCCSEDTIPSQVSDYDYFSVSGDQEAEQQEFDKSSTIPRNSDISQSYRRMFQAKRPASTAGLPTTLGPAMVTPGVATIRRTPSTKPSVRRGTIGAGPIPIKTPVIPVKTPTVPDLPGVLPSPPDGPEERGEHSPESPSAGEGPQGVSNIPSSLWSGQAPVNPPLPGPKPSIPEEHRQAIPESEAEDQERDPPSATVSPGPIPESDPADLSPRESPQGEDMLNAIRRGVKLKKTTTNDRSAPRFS
UniProt Q8K2H2: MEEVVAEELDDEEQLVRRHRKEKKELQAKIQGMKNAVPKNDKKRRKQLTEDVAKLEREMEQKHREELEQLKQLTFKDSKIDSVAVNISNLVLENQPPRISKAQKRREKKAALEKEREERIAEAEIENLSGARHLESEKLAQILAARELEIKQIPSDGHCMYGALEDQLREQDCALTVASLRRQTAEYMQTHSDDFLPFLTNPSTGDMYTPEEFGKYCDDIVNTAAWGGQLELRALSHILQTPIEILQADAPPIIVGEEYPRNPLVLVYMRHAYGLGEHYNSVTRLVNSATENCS
UniProt Q8K194: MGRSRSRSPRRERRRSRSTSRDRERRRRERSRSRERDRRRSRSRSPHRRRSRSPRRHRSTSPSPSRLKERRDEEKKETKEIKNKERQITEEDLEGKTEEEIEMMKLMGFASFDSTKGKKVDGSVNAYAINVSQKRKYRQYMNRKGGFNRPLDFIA
UniProt Q8R1N0: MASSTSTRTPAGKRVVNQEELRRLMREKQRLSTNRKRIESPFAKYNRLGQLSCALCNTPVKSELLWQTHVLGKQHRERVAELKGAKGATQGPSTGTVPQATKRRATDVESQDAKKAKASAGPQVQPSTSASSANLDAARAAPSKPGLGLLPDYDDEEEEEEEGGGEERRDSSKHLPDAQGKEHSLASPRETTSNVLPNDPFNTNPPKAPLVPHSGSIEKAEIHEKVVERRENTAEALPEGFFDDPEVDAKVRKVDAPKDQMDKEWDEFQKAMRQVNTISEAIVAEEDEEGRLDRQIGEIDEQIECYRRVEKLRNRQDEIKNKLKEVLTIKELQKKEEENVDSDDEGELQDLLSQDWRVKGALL
UniProt Q8K2K6: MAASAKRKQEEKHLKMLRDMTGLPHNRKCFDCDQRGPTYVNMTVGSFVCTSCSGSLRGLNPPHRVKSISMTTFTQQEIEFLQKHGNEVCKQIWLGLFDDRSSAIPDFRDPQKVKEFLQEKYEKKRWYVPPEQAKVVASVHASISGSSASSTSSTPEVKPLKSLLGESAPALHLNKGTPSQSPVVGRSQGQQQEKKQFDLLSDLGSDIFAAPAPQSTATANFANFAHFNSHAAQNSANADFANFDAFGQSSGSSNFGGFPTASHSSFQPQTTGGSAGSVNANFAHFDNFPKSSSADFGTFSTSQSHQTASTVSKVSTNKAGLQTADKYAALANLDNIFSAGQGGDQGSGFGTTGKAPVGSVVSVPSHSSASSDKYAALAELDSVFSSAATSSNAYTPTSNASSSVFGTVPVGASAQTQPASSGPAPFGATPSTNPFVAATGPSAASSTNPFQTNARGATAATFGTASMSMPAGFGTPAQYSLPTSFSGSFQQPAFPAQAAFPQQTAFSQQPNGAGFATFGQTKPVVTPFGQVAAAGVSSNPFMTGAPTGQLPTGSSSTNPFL
UniProt Q8K442: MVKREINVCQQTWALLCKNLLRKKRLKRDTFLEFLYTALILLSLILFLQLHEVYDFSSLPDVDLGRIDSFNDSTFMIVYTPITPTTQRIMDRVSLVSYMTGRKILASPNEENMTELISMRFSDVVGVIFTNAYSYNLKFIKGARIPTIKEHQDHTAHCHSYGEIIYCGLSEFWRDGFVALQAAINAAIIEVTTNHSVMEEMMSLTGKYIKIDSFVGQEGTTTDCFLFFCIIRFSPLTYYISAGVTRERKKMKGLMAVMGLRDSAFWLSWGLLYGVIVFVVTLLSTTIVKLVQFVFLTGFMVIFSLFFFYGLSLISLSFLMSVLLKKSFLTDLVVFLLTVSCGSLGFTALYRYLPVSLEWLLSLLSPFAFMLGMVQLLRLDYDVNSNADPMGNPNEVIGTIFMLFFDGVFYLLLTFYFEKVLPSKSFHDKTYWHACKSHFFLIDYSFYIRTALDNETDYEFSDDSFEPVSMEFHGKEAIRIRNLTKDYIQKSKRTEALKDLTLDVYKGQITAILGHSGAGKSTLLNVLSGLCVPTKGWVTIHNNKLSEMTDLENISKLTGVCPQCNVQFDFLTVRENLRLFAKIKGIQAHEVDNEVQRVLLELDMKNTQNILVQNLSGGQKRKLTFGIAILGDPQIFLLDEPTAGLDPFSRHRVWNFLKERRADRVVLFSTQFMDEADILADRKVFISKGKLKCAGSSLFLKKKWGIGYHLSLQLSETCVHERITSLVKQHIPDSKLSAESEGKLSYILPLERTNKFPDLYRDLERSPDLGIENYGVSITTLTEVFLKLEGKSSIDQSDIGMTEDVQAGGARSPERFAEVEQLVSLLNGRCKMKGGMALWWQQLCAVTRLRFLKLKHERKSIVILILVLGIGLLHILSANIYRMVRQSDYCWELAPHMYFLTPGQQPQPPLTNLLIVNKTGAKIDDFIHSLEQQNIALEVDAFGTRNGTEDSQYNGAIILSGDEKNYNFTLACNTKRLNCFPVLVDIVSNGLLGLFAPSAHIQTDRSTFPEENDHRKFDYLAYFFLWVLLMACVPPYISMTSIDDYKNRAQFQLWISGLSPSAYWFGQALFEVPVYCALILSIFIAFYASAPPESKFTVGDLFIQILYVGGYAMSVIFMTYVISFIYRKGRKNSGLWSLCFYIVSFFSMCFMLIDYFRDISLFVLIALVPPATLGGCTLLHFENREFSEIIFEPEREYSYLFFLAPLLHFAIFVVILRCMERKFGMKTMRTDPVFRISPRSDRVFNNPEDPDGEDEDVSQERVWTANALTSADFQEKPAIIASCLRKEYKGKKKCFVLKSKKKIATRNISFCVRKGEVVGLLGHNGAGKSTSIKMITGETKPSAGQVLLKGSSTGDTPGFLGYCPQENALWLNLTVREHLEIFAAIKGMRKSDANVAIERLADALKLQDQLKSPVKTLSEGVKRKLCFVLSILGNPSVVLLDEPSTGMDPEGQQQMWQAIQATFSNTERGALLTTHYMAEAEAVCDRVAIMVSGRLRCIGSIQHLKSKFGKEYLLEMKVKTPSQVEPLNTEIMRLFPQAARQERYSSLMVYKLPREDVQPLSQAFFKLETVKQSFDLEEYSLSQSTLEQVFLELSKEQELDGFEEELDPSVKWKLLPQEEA
UniProt Q8K1S5: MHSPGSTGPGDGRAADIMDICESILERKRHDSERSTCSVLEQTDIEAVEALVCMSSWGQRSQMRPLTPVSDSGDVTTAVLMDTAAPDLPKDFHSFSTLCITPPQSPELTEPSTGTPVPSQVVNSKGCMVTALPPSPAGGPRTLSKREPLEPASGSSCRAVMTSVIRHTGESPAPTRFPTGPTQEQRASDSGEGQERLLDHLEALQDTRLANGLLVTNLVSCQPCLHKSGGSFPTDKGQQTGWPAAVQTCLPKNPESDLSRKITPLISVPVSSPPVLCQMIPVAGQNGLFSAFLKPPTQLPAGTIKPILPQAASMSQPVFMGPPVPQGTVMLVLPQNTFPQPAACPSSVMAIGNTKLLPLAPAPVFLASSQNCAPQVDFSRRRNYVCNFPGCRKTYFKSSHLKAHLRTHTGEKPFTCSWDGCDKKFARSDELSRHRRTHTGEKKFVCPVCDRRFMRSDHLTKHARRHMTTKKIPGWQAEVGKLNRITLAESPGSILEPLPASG

Each target was assayed with CN[C@@H]1C[C@H]2O[C@@](C)([C@@H]1OC)n1c3ccccc3c3c4c(c5c6ccccc6n2c5c31)C(=O)NC4 [staurosporine] (assay: log2 fold change of tryptic peptide abundance, ligand vs vehicle (limited proteolysis) (log2 ratio); higher = more trypsin-susceptible (destabilized)). Settings: ligand concentration: 20 uM; sample: mouse liver crude lysate; replicate design: treated separately.
“UniProt Q8R2M0 (peptide sequence: VVVIEDIKR, peptide start residue: 35)” gave a log2 fold change of 0.446.
“UniProt Q8R1A4 (peptide sequence: MNSLTFKK, peptide start residue: 1380)” gave a log2 fold change of -0.551.
Target “UniProt Q8K1N2 (peptide sequence: EKEILDHLNRK, peptide start residue: 639)” has a log2 fold change of -0.847.
In the case of “UniProt Q8K2C6 (peptide sequence: GAPEPETQDAR, peptide start residue: 188)”, the log2 fold change is reported as 0.122.
Work on “UniProt Q8K2I3 (peptide sequence: FKENVEDGR, peptide start residue: 43)” yielded a log2 fold change of -0.352.
With “UniProt Q8K2I9 (peptide sequence: LGSSGSAQPAR, peptide start residue: 113)” the log2 fold change was -0.384.
“UniProt Q8R183 (peptide sequence: KSESLSFVAFPISK, peptide start residue: 261)” was tested, and the log2 fold change was -0.0815.
“UniProt Q8K4P0 (peptide sequence: SSSLDGDHHDGYHR, peptide start residue: 1271)” showed a log2 fold change of 0.358.
With “UniProt Q8K394 (peptide sequence: HTLDMLESSQDNMR, peptide start residue: 256)” the log2 fold change was 0.55.
With “UniProt Q8R0F9 (peptide sequence: QKAGEMVEVLPSQR, peptide start residue: 328)” the log2 fold change was -0.506.
With “UniProt Q8K2Q5 (peptide sequence: FWNSVMIQR, peptide start residue: 50)” the log2 fold change was 0.587.
“UniProt Q8R105 (peptide sequence: SNLSDKYQELR, peptide start residue: 65)” was tested, and the log2 fold change was 0.0485.
Target “UniProt Q8QZZ8 (peptide sequence: LQLWDIAGQER, peptide start residue: 75)” has a log2 fold change of 0.0323.
With “UniProt Q8R1I1 (peptide sequence: LYSLLFR, peptide start residue: 10)” the log2 fold change was -0.302.
Target “UniProt Q8R0A5 (peptide sequence: MEEVRGENEGKLEK, peptide start residue: 1)” has a log2 fold change of -0.251.
In the case of “UniProt Q8K1Y2 (peptide sequence: RIPSWSGRPIWMEK, peptide start residue: 249)”, the log2 fold change is reported as 0.104.
Target “UniProt Q8K354 (peptide sequence: FHQLDIDDPQSIR, peptide start residue: 59)” has a log2 fold change of 0.202.
“UniProt Q8R1S4 (peptide sequence: RTPSTKPSVR, peptide start residue: 595)” was tested, and the log2 fold change was -0.644.
Work on “UniProt Q8K1A5 (peptide sequence: VADRSPTEMLHSTPAGDR, peptide start residue: 6)” yielded a log2 fold change of 0.0583.
In the case of “UniProt Q8K2H2 (peptide sequence: HREELEQLK, peptide start residue: 63)”, the log2 fold change is reported as 0.0839.
“UniProt Q8R143 (peptide sequence: SRHDEIR, peptide start residue: 153)” gave a log2 fold change of 0.151.
With “UniProt Q8R1T1 (peptide sequence: MGFWAPLVLSHSR, peptide start residue: 53)” the log2 fold change was -0.0927.
In the case of “UniProt Q8K2Z8 (peptide sequence: AQQSYNSIVQIHEK, peptide start residue: 354)”, the log2 fold change is reported as -0.232.
With “UniProt Q8R107 (peptide sequence: AKETALAATEK, peptide start residue: 189)” the log2 fold change was 0.754.
“UniProt Q8K3K7 (peptide sequence: LVDTCYQSMR, peptide start residue: 244)” was tested, and the log2 fold change was -0.408.
In the case of “UniProt Q8K194 (peptide sequence: KVDGSVNAYAINVSQK, peptide start residue: 119)”, the log2 fold change is reported as -0.108.
Target “UniProt Q8R1N0 (peptide sequence: NRQDEIK, peptide start residue: 314)” has a log2 fold change of 0.274.
Work on “UniProt Q8K2K6 (peptide sequence: SSAIPDFRDPQKVK, peptide start residue: 101)” yielded a log2 fold change of 0.215.
Target “UniProt Q8K442 (peptide sequence: KGEVVGLLGHNGAGK, peptide start residue: 1314)” has a log2 fold change of 0.0508.
Work on “UniProt Q8K4Z5 (peptide sequence: LTAQFVAR, peptide start residue: 169)” yielded a log2 fold change of 0.208.
“UniProt Q8K1S5 (peptide sequence: LLDHLEALQDTR, peptide start residue: 197)” showed a log2 fold change of -0.292.
